Measurements from paper doi:10.1101/061564.
Like-named read-outs stand apart in the source and are kept apart here. No constants are given. Whether binding was seen depends on the method and setting. For some of these results: Binding calls can cover weak binding; strength is not graded here.

B1: LSH9 (LIGHT-… SHORT HYPOCOTYLS 9), Col variant (protein, UniProt Q9SN52 1-191)
chain: MSSDRHTPTKDPPDHPSSSSNHHKQPLPPQPQQPLSRYESQKRRDWNTFVQYLKSQNPPLMMSQFDYTHVLSFLRYLDQFGKTKVHHQACVFFGQPDPPGPCTCPLKQAWGSLDALIGRLRAAYEEHGGGSPDTNPFANGSIRVHLREVRESQAKARGIPYRKKKRRKTKNEVVVVKKDVANSSTPNQSFT

Key:
Assay in all cases: two-hybrid
[1] = target: T1, ELF3-7Q (variant in Col) (Arabidopsis thaliana) (UniProt O82804)
T1 sequence: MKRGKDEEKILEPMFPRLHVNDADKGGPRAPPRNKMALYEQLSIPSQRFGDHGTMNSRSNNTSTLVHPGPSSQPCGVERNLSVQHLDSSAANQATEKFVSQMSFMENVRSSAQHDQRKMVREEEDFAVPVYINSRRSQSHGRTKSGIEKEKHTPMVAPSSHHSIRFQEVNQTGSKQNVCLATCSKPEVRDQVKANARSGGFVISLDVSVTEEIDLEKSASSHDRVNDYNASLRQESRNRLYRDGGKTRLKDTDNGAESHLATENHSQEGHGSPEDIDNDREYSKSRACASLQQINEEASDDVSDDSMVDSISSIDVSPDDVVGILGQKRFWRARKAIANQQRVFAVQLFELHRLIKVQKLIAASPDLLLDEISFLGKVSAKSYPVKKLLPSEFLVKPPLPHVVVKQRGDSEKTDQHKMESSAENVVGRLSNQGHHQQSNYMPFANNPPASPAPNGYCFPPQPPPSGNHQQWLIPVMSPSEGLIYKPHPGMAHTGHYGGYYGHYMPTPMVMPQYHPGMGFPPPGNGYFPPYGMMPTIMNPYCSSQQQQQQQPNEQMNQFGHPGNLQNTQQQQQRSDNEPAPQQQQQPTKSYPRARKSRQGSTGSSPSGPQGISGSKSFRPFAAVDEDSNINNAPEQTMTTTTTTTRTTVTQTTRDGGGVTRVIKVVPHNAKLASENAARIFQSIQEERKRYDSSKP

[2] = target: T1, ELF3-7Q (variant in Col) (Arabidopsis thaliana); remark: listed apart in the source
[3] = target: ELF3-16Q (variant in Ws) (Arabidopsis thaliana) (UniProt O82804)

binding [1]	binding [2]	binding [3]	Molecule
binds			PHYB-Cterm, Ws variant (C-terminal truncation of PHYB sufficient for ELF3 interaction) (Arabidopsis thaliana) (domain or fragment)
binds	binds		PLAC8-domain-containing protein AT4G23470 (Arabidopsis thaliana)
		no binding	B1
